Experimental data: US20250325687A1 (MABSOFT THERAPEUTICS (SHANGHAI) CO., LTD., priority 2022, published 2025)

Test: general procedure: solution-phase peptide synthesis; HATU, DIEA

Substance	step yield (late stage modification step)	conjugation yield (conjugation step)
Boc-GGFG-PAB-OH (h-0473)	96.7% yield	
Boc-GGFG-payload (h-0468)		47.2% yield
